Measured values published in PubChem BioAssay AID504467 (National Center for Advancing Translational Sciences (NCATS), 2011).
Out of some 330,000 compounds screened, about 7,700 (2.3%) were called active. The shares of active, inactive and inconclusive entries below differ from those in the screen. Calls come from the whole dose curve; as a rule, active = well fitted inhibition curve with a large enough effect; inconclusive = small, poorly fitted or top-dose-only effect, or effect the other way; inactive = flat fitted curve, though single readings scatter. Potencies beside an inconclusive call are fits to weak or partial responses and may not hold up.

test: qHTS screen for small molecules that inhibit ELG1-dependent DNA repair in human embryonic kidney (HEK293T) cells expressing luciferase-tagged ELG1; conditions: HEK293T ELG1-luciferase reporter, luminescence, 16 h, DNA damage induced by 5-fluorouridine; activity change, negative = inhibition: at 46.1 µM (top of the series); note: nearly all actives have a fitted effect of over 55% in size
Method in brief: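 Reporter activity after DNA damage by 5-fluorouridine is monitored. Compound-treated cells incubate 16 hr at 37 °C, then ONE-Glo is added for 30 min before luminescence reading.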
% is set by controls: 0 for no effect and ±100 for the full control effect; potency is the fitted concentration of half-maximal effect.

Compound | Potency | activity change, negative = inhibition
c1ccc(-c2noc(C3CCCCC3)n2)nc1 | inconclusive: 9.2 µM [activator, partial curve] | –
O=S(=O)(O)c1cccc(N=Nc2c(O)ccc3ccccc23)c1 | – | inactive: 1.62%
COc1ccc2nc(SCc3nc(N)nc(Nc4ccccc4)n3)[nH]c2c1 | inconclusive: 25.9 µM [inhibitor, single point] | –
CCn1c(/C=C2\C(=O)Nc3ccccc32)nc2ccccc2c1=O | inconclusive: 25.9 µM [inhibitor, partial curve] | –
OCC1OC(n2cnc3ccccc32)CC1O (stereo unspecified) | – | inactive: 0.812%
Cc1ccc(CNC(=O)CN(c2ccc(Cl)cc2)S(C)(=O)=O)cc1 | inconclusive: 23.1 µM [activator, single point] | –
COc1ccccc1CN1CC(C(=O)N2CCCCO2)CCC1=O (stereo unspecified) | inconclusive: 23.1 µM [activator, single point] | –
COc1ccc(CCN(Cc2cc3cccc(C)c3[nH]c2=O)C(=O)N2CCCC2)cc1OC | inconclusive: 23.1 µM [inhibitor, single point] | –
CN(C)C(CNC(=O)c1cc(S(=O)(=O)N(C)c2ccccc2)ccc1Cl)c1ccccc1 (stereo unspecified) | inconclusive: 18.3 µM [inhibitor, single point] | –
O=C(Cc1ccccc1)NCc1ccc(F)cc1 | inconclusive: 16.4 µM [activator, partial curve, poor fit] | –
Cc1ccc(C(=O)Oc2ccc(-c3nccc(-c4ccccn4)n3)cc2)cc1 | inconclusive: 2.31 µM [activator, full curve] | –
O=C(Nc1nccs1)c1ccc(Cl)cc1[N+](=O)[O-] | – | inactive: 3.78%
Cc1ccc(N(C(=O)c2snc(C(N)=O)c2N)C(C(=O)NC2CCCC2)c2ccc(C)o2)cc1 (stereo unspecified) | inconclusive: 25.9 µM [inhibitor, single point] | –
O=C(Cc1ccc([N+](=O)[O-])cc1)NCC1CCCO1 (stereo unspecified) | – | inactive: -2.97%
Cc1ccccc1N1C(=O)c2sc3nc4c(c(=O)n3c2C1=O)CCC4 | – | inactive: 0.868%
COc1cccc(CN2CC(C(=O)N3CCN(C(C)C)CC3)CCC2=O)c1 (stereo unspecified) | – | inactive: 8.23%
CN(C)c1nc2c(c(=O)[nH]c(=O)n2C)n1CCCc1ccccc1 | – | inactive: -0.652%
COCCNC(=O)C(=O)Nc1ccc(Cl)cc1C | inconclusive: 16.4 µM [activator, partial curve] | –
CSc1nc(O)c(C(c2ccc(O)cc2)c2c(O)nc(SC)[nH]c2=O)c(=O)[nH]1 | – | inactive: 8.76%
Cc1cc2c(cc1S(=O)(=O)N1CCOCC1)NC(=O)CO2 | – | inactive: -1.83%
COc1ccccc1NC(=O)Nc1nc(CC(=O)NCc2ccccn2)cs1 | inconclusive: 7.3 µM [inhibitor, single point] | –

Some of the entries so far, in markdown.

| Compound | Potency | activity change, negative = inhibition |
| --- | --- | --- |
| COc1cccc(CN2CC(C(=O)N3CCN(C(C)C)CC3)CCC2=O)c1 (stereo unspecified) | – | inactive: 8.23% |
| CN(C)c1nc2c(c(=O)[nH]c(=O)n2C)n1CCCc1ccccc1 | – | inactive: -0.652% |
| COCCNC(=O)C(=O)Nc1ccc(Cl)cc1C | inconclusive: 16.4 µM [activator, partial curve] | – |
| CSc1nc(O)c(C(c2ccc(O)cc2)c2c(O)nc(SC)[nH]c2=O)c(=O)[nH]1 | – | inactive: 8.76% |
| Cc1cc2c(cc1S(=O)(=O)N1CCOCC1)NC(=O)CO2 | – | inactive: -1.83% |
| COc1ccccc1NC(=O)Nc1nc(CC(=O)NCc2ccccn2)cs1 | inconclusive: 7.3 µM [inhibitor, single point] | – |
